Results are given in words; binding and its absence hold for the method and conditions named. Some entries that bind do so weakly or less than the wild type. For some assays here: Tags and fused reporters may be left off the sequences shown.
Tests used:
[1] = target: RLD1 BRX domain, purified (Arabidopsis thaliana) (UniProt Q947D2); test: SEC; gel filtration analysis of isolated BRX domains and of their complexes with LZY CCLs; both purified
[2] = target: T1, GST-LZY3 CCL (Arabidopsis thaliana) (UniProt Q5XVG3); test: pull-down; purified protein and GST-fusion protein mixed with glutathione sepharose 4B, 4 °C; eluates on SDS-PAGE; both purified
T1 sequence: KWVKTDSDFIVLEI

Sequences of proteins named here, by UniProt entry; tags and fusion partners are left off. A change or cut given only in a name is not applied to a line headed by its entry.
UniProt Q5XVG3: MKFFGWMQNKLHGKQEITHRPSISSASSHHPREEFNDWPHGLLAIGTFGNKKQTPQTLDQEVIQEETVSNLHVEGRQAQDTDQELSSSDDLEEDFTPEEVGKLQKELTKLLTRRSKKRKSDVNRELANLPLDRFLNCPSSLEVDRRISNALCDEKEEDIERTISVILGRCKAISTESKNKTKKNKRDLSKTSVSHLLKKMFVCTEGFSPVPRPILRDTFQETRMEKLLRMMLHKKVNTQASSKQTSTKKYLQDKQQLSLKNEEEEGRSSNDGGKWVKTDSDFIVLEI

- binding [1]: no binding
- binding [2]: binds
B1: RLD1 BRX domain, purified (domain or fragment, UniProt Q947D2 1023-1078)
chain: AEWIEQYEPGVYITLVALHDGTRDLRRVRFSRRRFGEHQAETWWSENREKVYEKYN
